The target in experiment [1] is T1, GST-pLhx3 fusion protein (porcine) (UniProt O97581).
T1 sequence: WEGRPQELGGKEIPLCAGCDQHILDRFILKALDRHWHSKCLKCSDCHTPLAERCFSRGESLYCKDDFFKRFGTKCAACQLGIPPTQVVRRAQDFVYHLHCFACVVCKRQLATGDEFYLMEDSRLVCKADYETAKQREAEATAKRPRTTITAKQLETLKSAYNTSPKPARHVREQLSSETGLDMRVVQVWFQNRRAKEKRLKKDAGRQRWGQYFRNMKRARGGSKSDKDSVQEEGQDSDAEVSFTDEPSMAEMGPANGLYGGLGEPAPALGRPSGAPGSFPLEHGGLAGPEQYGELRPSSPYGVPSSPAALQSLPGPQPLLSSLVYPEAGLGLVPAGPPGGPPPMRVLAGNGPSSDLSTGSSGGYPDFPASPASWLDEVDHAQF
Description: GST pull-down of 35S-labelled in vitro translated protein; SDS-PAGE and fluorography.

In experiment [2] the target is T2, NLI (nuclear LIM interactor), murine (mouse) (UniProt P70662).
T2 sequence (35S-methionine radiolabel, looked up): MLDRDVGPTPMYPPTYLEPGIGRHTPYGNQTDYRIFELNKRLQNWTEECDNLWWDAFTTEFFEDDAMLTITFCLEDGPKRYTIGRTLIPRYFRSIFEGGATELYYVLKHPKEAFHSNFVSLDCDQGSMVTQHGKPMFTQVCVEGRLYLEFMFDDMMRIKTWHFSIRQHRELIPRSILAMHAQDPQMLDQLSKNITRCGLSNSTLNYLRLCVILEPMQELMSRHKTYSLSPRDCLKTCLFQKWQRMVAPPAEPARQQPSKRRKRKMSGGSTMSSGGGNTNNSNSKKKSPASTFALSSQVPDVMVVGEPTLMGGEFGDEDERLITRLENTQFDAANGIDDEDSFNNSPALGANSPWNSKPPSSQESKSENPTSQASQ
Description: in vitro protein/protein interaction assay (GST pull-down).

For experiment [3], the target named is T3, rat Pit-1 (rat) (UniProt P10037).
T3 sequence (35S-methionine radiolabel (in vitro translated protein), looked up): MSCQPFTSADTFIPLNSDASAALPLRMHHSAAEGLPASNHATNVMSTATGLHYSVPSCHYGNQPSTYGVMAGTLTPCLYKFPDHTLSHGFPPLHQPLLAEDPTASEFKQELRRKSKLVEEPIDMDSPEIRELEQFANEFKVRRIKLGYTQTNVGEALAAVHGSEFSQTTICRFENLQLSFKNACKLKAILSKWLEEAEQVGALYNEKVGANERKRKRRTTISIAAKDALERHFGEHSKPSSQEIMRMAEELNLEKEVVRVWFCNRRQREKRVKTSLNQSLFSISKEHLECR
The description is as above.

In experiment [4] the target is T2, NLI (nuclear LIM interactor), murine (mouse). As to the kind of experiment: GST pull-down of 35S-labelled in vitro translated protein; fluorography.
Experiment [5] has as its target T3, rat Pit-1 (rat). The description is as above.
For experiment [6], the target named is GST-NLI fusion protein (mouse) [GST: P08515]. As to the kind of experiment: GST pull-down of 35S-labelled in vitro translated protein; SDS-PAGE and fluorography.

Consider three molecules from patent publication US20030027152A1, “Generation of diagnostic tools to assay the human LHX3/P-LIM/LIM-3 factor” (Indiana University Advanced Research and Technology …, published 2003).

These are yes or no findings as the source states them, for the method shown. In cells and extracts the contact can be indirect. Some binding calls cover weakened binding; strength is not graded here. For some assays here: Where a sequence is shown, tags or fusion partners need not be part of it.

B1: NLI (nuclear LIM interactor), murine (protein, mouse, UniProt P70662-3 1-375, looked up)
chain: T2 sequence (35S-methionine radiolabel, looked up)
modifications: 35S-methionine radiolabel
In the case of B1, the binding result in experiment [1] is listed as “binds”.

B2: porcine Lhx3 (pLhx3) (protein)
chain: T1 sequence
modifications: 35S-methionine radiolabel (in the pull-down assay)
Consider B2, for which the binding entry (in experiment [2]; with rat Pit-1 (rat) [3]; in experiment [4]; in the experiment with rat Pit-1 (rat) [5]; in experiment [6]) was “binds” throughout.

B3: GST-pLhx3 fusion protein (protein, not shown: a dimerising Fc or GST)
chain: T1 sequence
B3: the binding entry (in experiment [2]; with rat Pit-1 (rat) [3]) was “binds” in each case.
